This note sets out measurements from paper PMC7819943, “Rice protein-binding microarrays: a tool to detect cis-acting elements near promoter regions in rice”.

By UniProt entry, the sequences of proteins in these tests, tags left out.
UniProt Q0JBA9, entry or part of it: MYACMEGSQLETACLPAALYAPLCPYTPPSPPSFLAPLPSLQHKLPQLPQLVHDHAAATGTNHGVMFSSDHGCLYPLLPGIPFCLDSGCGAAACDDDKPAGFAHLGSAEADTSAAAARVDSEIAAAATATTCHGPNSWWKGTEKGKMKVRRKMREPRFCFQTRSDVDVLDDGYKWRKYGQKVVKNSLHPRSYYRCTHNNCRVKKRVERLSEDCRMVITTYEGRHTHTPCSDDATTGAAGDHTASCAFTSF

The list shows a part of the results.

This test deals with OsWRKY34 (Oryza sativa, UniProt Q0JBA9 1-250). As to the kind of experiment: protein-binding microarray (RPBM); PBS, 2% BSA, 51.3 ng/ul salmon testes DNA, 50 uM zinc acetate, 200 nM TF, 25 C, 1 h; high values mean tight binding. To be noted: protein: recombinant; tags: N-terminal polyhistidine and DsRed monomer fusion (pET32a); label: CyDye5-dUTP incorporated in the synthesized complementary strand; 3' TTTTT single-stranded linker to array surface; dsDNA, one strand shown. In short, it runs like this:
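The binding signal is fluorescence intensity per feature, in arbitrary units, read on an Axon 4000B scanner. Polyhistidine- and DsRed-tagged transcription factors (N-terminal fusions) from E. coli BL21-CodonPlus were purified on Ni–NTA and applied at 200 nM for 1 h at 25 °C to a double-stranded, BSA-blocked custom Agilent array in buffer with 50 µM zinc acetate.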
For the sequence “GTAATCTCGGAAATGTGGGGTTGTTGCGGTTGATTTTTTGCGGAGTCACCTAGTGCAG”, the binding signal is 10100 fluorescence intensity (a.u.). For “ATGATGCCTTGATGCATGTGTGCGGTTGCTCTTTTTTTTTCGGAGTCACCTAGTGCAG” the value was 10100 fluorescence intensity (a.u.); for “ATTACCCTAATCATCATTCATTCATGTATAGCTCATCCTACGGAGTCACCTAGTGCAG”, 8810 fluorescence intensity (a.u.); for “CACAGTTCTCTTATTGCCATTTTTTGTGATTGATATTTGACGGAGTCACCTAGTGCAG”, 8540 fluorescence intensity (a.u.). The same measure for “AATGTTCAAAATTGTGCAATCAAGGTCTTACGGCAGTATACGGAGTCACCTAGTGCAG”: 8120 fluorescence intensity (a.u.); for “ATCCATCCGCCGCCGCCGCCGCCGCCGCCGCCACTTTATGCGGAGTCACCTAGTGCAG”: 10300 fluorescence intensity (a.u.). For “TACTTTAATTTTGGATAGACTAGTTCTTCCATGCTTTGCTCGGAGTCACCTAGTGCAG” the value was 8590 fluorescence intensity (a.u.).

As for “TGGGGAGTGATTTCTGGTATTGCGGTTGAGGGATACGATTCGGAGTCACCTAGTGCAG”, the binding signal was 9560 fluorescence intensity (a.u.). For “GTTACACCTTTCAACCCTCTTCTATGTTCTAACAGCCAACCGGAGTCACCTAGTGCAG” the value was 8840 fluorescence intensity (a.u.); for “ATCGCGCTCCCACGCCGCTCGCCTCGTCGACCTCGTCACCCGGAGTCACCTAGTGCAG”, 9380 fluorescence intensity (a.u.). The same measure for “GAACTTCTTTAGTTATGATCGTTTTGCTATGTGGATTGATCGGAGTCACCTAGTGCAG”: 8330 fluorescence intensity (a.u.); for “ACTAACATGGTAGATTGCGCATTTATTTGTACTGTATTATCGGAGTCACCTAGTGCAG”: 8820 fluorescence intensity (a.u.); for “TCCATCTCCGCCTCCGCCGCCGCCGCCGCCGACCAAGTCGCGGAGTCACCTAGTGCAG”: 8290 fluorescence intensity (a.u.). For “CTGATCTTAGTTCTTGTCGACCAAGTGATCTATACTCCCTCGGAGTCACCTAGTGCAG” the value was 8320 fluorescence intensity (a.u.). For “CCCACCTCCTCCAATCCACAGCCTCGTCGATCCACTTCAACGGAGTCACCTAGTGCAG”, the binding signal was 8110 fluorescence intensity (a.u.).

Regarding “GTGTATGCACGTTTATAGGTGTGAGTGTATGTTGTAAGCGCGGAGTCACCTAGTGCAG”, the binding signal was 8560 fluorescence intensity (a.u.). The same measure for “TTCCACAAGAGCTAGCATCGTTGAACTTCCTTGCAACATTCGGAGTCACCTAGTGCAG”: 8380 fluorescence intensity (a.u.). Turning to “GCTTACTGGTTATGGTTGGTAGGGTTGGACGTGTAACAGACGGAGTCACCTAGTGCAG”, the binding signal was 20900 fluorescence intensity (a.u.). For “GCAAGCACTCATATAAACTGTACACTCACCACTATAAACACGGAGTCACCTAGTGCAG” the value was 9570 fluorescence intensity (a.u.); for “ACTCCTCTTCTCTTCATTTTCTTCTTCCCCTGTGCTTCTCCGGAGTCACCTAGTGCAG”, 10900 fluorescence intensity (a.u.). As for “CTCCACCGTCACCTACTCCTACCCCACCATAAAAGGTCACCGGAGTCACCTAGTGCAG”, the binding signal is 8700 fluorescence intensity (a.u.). The same measure for “CCAGTCCCTACGCTCTTGGACTGTTCACTTAGCCGCATCCCGGAGTCACCTAGTGCAG”: 12400 fluorescence intensity (a.u.).

For “AGCCCGGCCTCTCTCTCTCCCGTCCTTGTCTTCTTGCGCGCGGAGTCACCTAGTGCAG”, the binding signal is 9480 fluorescence intensity (a.u.). For “AAAATATGGAGTAGATGGATAGTACCCTTTTTTTTTTTCCCGGAGTCACCTAGTGCAG” the value was 9780 fluorescence intensity (a.u.); for “ATCCATATACCCATTGCTACATCTTCTAGTTTGAACATCTCGGAGTCACCTAGTGCAG”, 9870 fluorescence intensity (a.u.).

For “GGGGTGTGGATTTTGACGGTCGAACCGAGCTTAGGTGATTCGGAGTCACCTAGTGCAG”, the binding signal was 9450 fluorescence intensity (a.u.). Regarding “CCTGTTAGCTGTGTTTGAGACATCTGAATTTTGTGTACTCCGGAGTCACCTAGTGCAG”, the binding signal is 8380 fluorescence intensity (a.u.). The same measure for “TACTCCAGTACACTTTTTTTGCAGTCCAACCAATCAGCCACGGAGTCACCTAGTGCAG”: 9070 fluorescence intensity (a.u.). The same measure for “GCCAAATATTGACTGCTGGTTTTGTTTACCCTCCGCAGTGCGGAGTCACCTAGTGCAG”: 9050 fluorescence intensity (a.u.). The same measure for “TATGCCTCTTCTCAGGGAGTGCGCTTTTGTCTTGGTCATTCGGAGTCACCTAGTGCAG”: 10500 fluorescence intensity (a.u.); for “ATAACAACCCTCCTCCGCATCGCTGACCACGTTGACCATCCGGAGTCACCTAGTGCAG”: 13000 fluorescence intensity (a.u.); for “ACACAACCCAAAAACCCTCCAGGAGGTTGCCTCCATTGACCGGAGTCACCTAGTGCAG”: 8460 fluorescence intensity (a.u.). Regarding “TATGTGGGCTCAGATCTGCTCTTGACGGGCTTTCATTAAACGGAGTCACCTAGTGCAG”, the binding signal is 8630 fluorescence intensity (a.u.). For “GGGAGGGTCTGCCTGGCTTACTAATATCCGCCAAAAATAACGGAGTCACCTAGTGCAG” the value was 9450 fluorescence intensity (a.u.); for “CTCGCGGTCTTTTAAACATTATTGCCACACTCTTTTCATACGGAGTCACCTAGTGCAG”, 10500 fluorescence intensity (a.u.); for “GCTGCTCCTGGCACCCAGTTACTGCATGCCCGGTTTCCTCCGGAGTCACCTAGTGCAG”, 8820 fluorescence intensity (a.u.). The same measure for “TTCCTCTACATTCTACGTCCGGTTGGATTTTGCATGCGATCGGAGTCACCTAGTGCAG”: 8640 fluorescence intensity (a.u.). The same measure for “TCTTCCTCATGCGATTTGGTTGGTTGGTTTGACGCTACACCGGAGTCACCTAGTGCAG”: 13600 fluorescence intensity (a.u.); for “CGCTGGAAAATGGGTGGGATTTCGCGAGCTCTCCTGCCTCCGGAGTCACCTAGTGCAG”: 8960 fluorescence intensity (a.u.). On to “GATGGGCCACCAAGTCTCGCCCGCTCCCTCGTATAAAAACCGGAGTCACCTAGTGCAG”, for which the binding signal is 9780 fluorescence intensity (a.u.).

Turning to “CCTCGCAATTTACATGGCTCCTACTAGGTTGTGTAGCTGCCGGAGTCACCTAGTGCAG”, the binding signal was 8180 fluorescence intensity (a.u.).

Consider “TGTGTTTGTGTTGGATATTTTTTGAGTAGCGTCCTTTCCACGGAGTCACCTAGTGCAG”, for which the binding signal was 12200 fluorescence intensity (a.u.).
